# Hit rate of the full screen: of about 31,000 sequences, about 1,400 (4.5%) were called active.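 The calls were made as follows: active = median seed-adjusted z-score above 1 or below -1; inactive = the rest.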 The list shows a part of the results.
# Test: Novel Modifiers of Survival Motor Neuron (SMN) Protein: Gene Identification via Genome-wide siRNA Screen
# Conditions: HEK293T SMN2-luciferase reporter, siRNA knockdown, 72 h; actives lie on both sides
# Summary of the method: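 Each of three siRNAs per gene is reverse-transfected (1 pmol) into reporter HEK293T cells whose luciferase output tracks SMN protein level. After 72 h culture, ONE-Glo luminescence is control-normalized, log10-transformed and MAD-standardized; Common Seed Analysis deprioritizes seed-driven hits.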
row,Sequence,median seed-adjusted z-score
1,GGGAUGUAAUAACAGCAUUTT against GDE1,inactive: -0.256
2,CCAACAUCGUGGAGAAGUUTT against TRIM8,inactive: -0.296
3,GCAUUGGGAUAGAUAAAUUTT against ADK,inactive: 0.198
4,GAAUCGUCAAUGUCAAAAUTT against ADAM12,inactive: -0.343
5,CAGUGUUCCUUUGACCUGATT against ZNF384,inactive: -0.132
6,GAGUUAGCACAAUAGGUUATT against SOX5,inactive: 0.123
7,GGCAAGCAGUUCAACCACATT against ZBTB12,inactive: 0.0993
8,GCUUAUCUGAUACAAGGAATT against ZFP37,inactive: -0.305
9,GAGUUCUACUUGUCCAAUUTT against ZDHHC20,inactive: -0.936
10,GAGUAGCUCCAAUUCCGAUTT against MYT1,inactive: -0.292
11,CCAUGAUCCUGGAGGAUGATT against ZSCAN2,inactive: -0.428
12,CUGCUUGGGUGAUAGAUAATT against RTN4IP1,inactive: -0.00582
13,GAAGAAUUCGGGUGGAUUATT against TRA2A,inactive: -0.187
14,CUUCUGAUCUCAUUCAACATT against ZNF571,inactive: 0.175
15,GCAUUGUGGAGAAUGAGUATT against FGFR1,inactive: -0.562
16,CCCUUUCAAUAGACAGUGUTT against PRDX6,inactive: -0.0302
17,GCAUGUGGAAUUACAUGUATT against GRIK4,inactive: 0.249
18,GGAUACACCUUAGCAACCATT against ZNF642,inactive: 0.169
19,GGGUGAUAUUGUUCGAAUATT against ATP11B,inactive: 0.0036
20,CAUCGUUCGUUACUAUGAUTT against NEK2,inactive: -0.276
21,GAGUUAAUAUUGCCCAUUATT against NRXN2,inactive: -0.485
22,GACUUACCAGAGGUGCAAATT against ZNF638,inactive: 0.63
23,CCAGCAUCCGGUACUUUGATT against CORO1B,inactive: 0.405
24,CCACCAAGAUGUUAUCUGATT against KCNJ3,inactive: -0.0229
25,ACAUCGUAGUGGGACGAAUTT against EXOSC2,inactive: -0.0798
26,CCUUGUCUCUUCCACCUGATT against PHC1,inactive: -0.615
27,CCCACGUCGUGAUCUACGATT against MPST,inactive: -0.181

row,Sequence,median seed-adjusted z-score
1,CCAUGAAUCUCUAAAGGGATT against CADM3,inactive: 0
2,GGAGCUCCAAGACUCUAGATT against PPARGC1A,inactive: -0.0953
3,GCCUUUUCAAUCACAUAUATT against ATP6V0A4,inactive: -0.141
4,CAGAAGUCCUUAUACUUCATT against TIAL1,inactive: -0.985
5,CACCUUUUCUGGAUAGAGATT against DSC1,inactive: -0.151
6,GGAAAAUUUACAGAAGUAATT against ZNF610,inactive: 0.432
7,GAUGCCUUCUAAGAAAUUUTT against SPIRE2,inactive: 0.0604
8,CAGCUGAAAUCUCGAAAUATT against ARL5B,inactive: -0.506
9,CAGAUAUCCUUUGCUUUAATT against VN1R5,inactive: 0.177
10,CCAGUGAACGGGAAUAGUATT against FOXC1,inactive: -0.447
11,UAAGGACCGUGACUACAUUTT against DFNB31,inactive: -0.233
12,GUACCAGUCCAGUCCAUGATT against CDKN2D,inactive: -0.455
13,CACCCACACCGGAUUGAAATT against BAG5,inactive: -0.0153
14,CUCAUGUACUUGUACCUGUTT against NDUFB6,inactive: -0.357
15,CGACCACAUUCAUAUGUGATT against ABHD5,inactive: 0.131
16,GGAUGAUGCACAAAUCUUATT against SERPINB7,inactive: 0.584
17,UCAUGUGCCUGGAAAUUAATT against AIRE,inactive: 0.308
18,GCUGGAAAAGGUUAACGAATT against PKNOX1,inactive: 0.68
19,GCACUGGAAGAGGCAAGUATT against ENPEP,inactive: 0.666
20,CCUUAUUCGACAUGAGAUATT against ZNF257,inactive: 0.306
21,CACUCAACUCCAUCGAAUATT against CDC42BPB,inactive: -0.556
22,CGCUGUGCAUGGACUACAATT against FZD8,inactive: -0.177
23,CCAGUGGGUGUAUAACAUUTT against DCPS,inactive: 0.669
24,GGAAGGCUAAAGACUUAUATT against ZMPSTE24,inactive: -0.633
25,GGAUGACAAGGAACACUCATT against CFB,inactive: 0.132
26,CGAGACUUCUGACAUCUAUTT against DTX3,inactive: 0.227
27,GCAUUUAGGUACCAGCUCATT against SLC39A2,inactive: 0.0602

# 3 records drawn at random from those above, as already listed:
row,Sequence,median seed-adjusted z-score
25,GGAUGACAAGGAACACUCATT against CFB,inactive: 0.132
19,GCACUGGAAGAGGCAAGUATT against ENPEP,inactive: 0.666
5,CAGUGUUCCUUUGACCUGATT against ZNF384,inactive: -0.132

# Reference: PubChem BioAssay AID1347426 (Functional Genomics Laboratory (NCATS/FGL), 2020)
